# Experimental data: PubChem BioAssay AID1259260 (Sanger Institute, 2017)
# Assay: 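Kinome knock-down with three anchor drugs to find synergy partners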 (primary screen)
# Cell system: human NCI-H716 colorectal cancer cells
# Reagent: siRNA pool against human genes
# Challenge: anchor drugs BYL719 (alpelisib) 1 µM, cetuximab 5 µg/ml or trametinib 10 nM, each at a dose chosen to harm viability only mildly; DMSO vehicle for the knock-down-alone arm
# Measurement: 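Replicate-averaged viability relative to a non-targeting pool, a robust z-score for knock-down alone, and a synergy score per anchor drug versus each agent alone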
# Scale: viability robust z-score, siRNA alone: higher = more surviving cells; below -3 called essential; viability vs control, no drug: higher = more surviving cells; synergy score with BYL719 and synergy score with cetuximab and synergy score with trametinib: higher = stronger synergy (synthetic lethality) with drug
# Active means: 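Essential when the robust z-score for knock-down alone falls below -3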
# Meaning of the calls: active = essential (knock-down alone lowers viability); inactive = no essential effect
# Shown is an unselected part of 794 reagents tested. 13 of them (1.6%) were called active. 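Calls reflect only knock-down without drug; synergy above 0.15 was grouped apart and does not change the call.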 No viability above 1 is reported: the scale is capped. Reagent sequences are not shown. Not stated in the record: the amount of reagent, the time to read-out.
Gene,"viability robust z-score, siRNA alone","viability vs control, no drug (fraction of control)",synergy score with BYL719,synergy score with cetuximab,synergy score with trametinib,activity call
TP53 (tumor protein p53),0.602,1,-0.24,-0.1,-0.0399,inactive
NME6 (NME/NM23 nucleoside diphosphate kinase 6),-0.467,0.889,-0.363,-0.2,-0.162,inactive
EPHA10 (EPH receptor A10),-0.595,0.876,-0.0927,-0.0811,0.048,inactive
TP53RK (TP53 regulating kinase),0.602,1,-0.0794,-0.1,-0.0104,inactive
"LYN (LYN proto-oncogene, Src family tyrosine kinase)",0.602,1,-0.164,-0.0559,0.0264,inactive
ALPK1 (alpha kinase 1),0.602,1,-0.0702,-0.0114,0.304,inactive
PTEN (phosphatase and tensin homolog),0.602,1,-0.133,-0.092,0.0371,inactive
PAPSS2 (3'-phosphoadenosine 5'-phosphosulfate synthase 2),0.602,1,-0.283,-0.1,-0.0246,inactive
WT1 (WT1 transcription factor),0.602,1,-0.239,-0.1,-0.105,inactive
MAP3K8 (mitogen-activated protein kinase kinase kinase 8),0.602,1,-0.0294,-0.1,-0.0319,inactive
RBM10 (RNA binding motif protein 10),0.602,1,-0.0188,-0.1,-0.0459,inactive
ROR1 (ROR family WNT receptor 1),-0.0608,0.931,-0.0775,-0.162,0.0889,inactive
TRIB1 (tribbles pseudokinase 1),-1.31,0.801,-0.0688,0.0635,0.0798,inactive
DDR1 (discoidin domain receptor tyrosine kinase 1),-0.332,0.903,-0.0775,-0.0878,0.279,inactive
ATM (ATM serine/threonine kinase),-2.26,0.702,-0.228,-0.343,-0.145,inactive
GNAS (GNAS complex locus),0.602,1,-0.118,-0.1,-0.0981,inactive
ACO1 (aconitase 1),-1.34,0.798,-0.0127,-0.0505,-0.001,inactive
CHKA (choline kinase alpha),0.602,1,0.16,0.165,0.137,inactive
NME3 (NME/NM23 nucleoside diphosphate kinase 3),0.602,1,-0.149,-0.1,0.0145,inactive
STK32C (serine/threonine kinase 32C),0.602,1,-0.239,-0.1,-0.0619,inactive
MAP3K19 (mitogen-activated protein kinase kinase kinase 19),0.445,0.984,-0.0257,0.0351,0.0706,inactive
IPPK (inositol-pentakisphosphate 2-kinase),-4.7,0.449,-0.371,-0.417,-0.26,active
"BRAF (B-Raf proto-oncogene, serine/threonine kinase)",0.409,0.98,-0.0458,-0.0956,-0.13,inactive
HIPK4 (homeodomain interacting protein kinase 4),0.602,1,-0.0919,-0.0803,0.00347,inactive
MAP2K3 (mitogen-activated protein kinase kinase 3),0.602,1,-0.0602,-0.1,0.0439,inactive
MAP2K5 (mitogen-activated protein kinase kinase 5),0.147,0.953,-0.156,-0.143,-0.104,inactive
NADK (NAD kinase),0.602,1,-0.171,-0.1,0.162,inactive
SGK2 (serum/glucocorticoid regulated kinase 2),-0.882,0.846,-0.153,-0.16,-0.0191,inactive
CSF1R (colony stimulating factor 1 receptor),-0.489,0.887,-0.161,-0.202,0.0631,inactive
PRKAR1B (protein kinase cAMP-dependent type I regulatory subunit beta),-1.72,0.759,-0.0637,-0.122,0.0155,inactive
MYO3B (myosin IIIB),0.602,1,0.00334,-0.1,0.0277,inactive
CDK5R2 (cyclin dependent kinase 5 regulatory subunit 2),-0.236,0.913,-0.151,-0.0992,0.0697,inactive
SCYL3 (SCY1 like pseudokinase 3),0.15,0.953,-0.102,-0.143,-0.214,inactive
PIK3C2B,0.168,0.955,-0.268,-0.141,0.14,inactive
UCKL1 (uridine-cytidine kinase 1 like 1),0.602,1,-0.247,-0.1,-0.136,inactive
PIP5K1A (phosphatidylinositol-4-phosphate 5-kinase type 1 alpha),-1.05,0.828,-0.116,-0.0255,0.0159,inactive
RIOK2 (RIO kinase 2),0.602,1,-0.118,-0.1,0.00812,inactive
AAK1 (AP2 associated kinase 1),-0.146,0.922,-0.207,0.0836,0.0714,inactive
CKB (creatine kinase B),-2.24,0.705,-0.0956,-0.244,-0.109,inactive
ULK1 (unc-51 like autophagy activating kinase 1),0.602,1,-0.097,-0.1,-0.0839,inactive
CUL1 (cullin 1),-0.454,0.89,-0.221,-0.123,-0.0794,inactive
VRK1 (VRK serine/threonine kinase 1),0.602,1,-0.0726,-0.1,0.112,inactive
CAMKK2 (calcium/calmodulin dependent protein kinase kinase 2),0.602,1,-0.0429,-0.1,0.0736,inactive
NUAK1 (NUAK family kinase 1),0.602,1,-0.15,-0.1,0.0147,inactive
MAPK6 (mitogen-activated protein kinase 6),0.602,1,-0.096,-0.1,-0.00805,inactive
ACVR1B (activin A receptor type 1B),0.124,0.95,-0.0129,-0.145,0.21,inactive
PRKAR1A,0.602,1,-0.124,-0.1,-0.00573,inactive
PRPS1 (phosphoribosyl pyrophosphate synthetase 1),0.602,1,0.0529,0.0505,-0.00224,inactive
EFNA5 (ephrin A5),-1.28,0.804,-0.0762,0.101,0.189,inactive
STK32B (serine/threonine kinase 32B),0.208,0.959,-0.141,-0.137,0.0879,inactive
